Key:
[1] = system: brine shrimp A. salina larvae; experiment: Method F: immersion bioassay of brine shrimp larvae in brine; assay type: in vivo; details: slope of log-probit regression line
Description: Immersion Bioassay of Brine Shrimp A. salina Larvae in Brine
Freshly hatched brine shrimps were prepared by adding aquarium brine shrimp eggs to salt water (15 g sea salt per litre water). The following day hatchlings were separated from eggs and empty egg cases, using their phototropic movement and a Pasteur pipette.
Into each of a set of small glass vials was pipetted 195 μL of brine containing 5 shrimp larvae, using a micropipette. The solution of the test compound in 5 μL acetone was added, the vial closed and kept at 30±1° C. for observation.
Dead and alive shrimps were counted, at 1 and 24 hours after treatment, using a microscope. Six concentrations and a control were used with 10 shrimps treated.
A blank test was performed for comparison of the results.
(§1) Dosages used in insect treatments were based upon the amount of compound applied to each insect. For the shrimps the final concentrations of the compounds in the immersion brine were used.
(§2) The 24 hour mortalities were used to calculate the LD50/LC50 using regression analysis of the probability percent mortality (probit) against log dose/concentration.^30 This was calculated using PoloPC software (LeOra Software, Berkeley, Calif., 1994).

[2] = system: adult fruit fly (D. melanogaster); experiment: Method A: topical treatment of adult fruit fly; assay type: in vivo, Drosophila melanogaster; details: slope of log-probit regression line, adult fruit flies
Description: Topical Treatment of Adult Fruit Fly (D. melanogaster)
A culture of fruit flies (D. melanogaster) was used in the production of adult flies (approx 0.22 mg) of about seven days.
Serial dilutions of the compounds were prepared in acetone, and volumes of approximately 0.2 μL were applied to the ventral surface of each insect, using a calibrated PAX 100 microapplicator and a 1 mL syringe.
The fruit flies, in groups of 5, were anaesthetised using carbon dioxide. Prior to recovery the flies were placed in a containing vial and kept at 30±1° C., for observations of mortality at 1, 2, 3 and 24 hours after treatment.
For this purpose solutions of 6 different concentrations and a control were employed in groups of 12 and 20 insects. Control mortalities were normally zero but occasionally rose to 5-10%.
as §1, §2
In the table are also given the confidence intervals at 95% for the LD50 values, the number of organisms tested, the slope obtained by linear regression and the index g (of significance). Data are considered satisfactory if g is substantially less than 1 and seldom greater than 0.4.^31
As regards the confidence intervals for LD50, the indication (90%) means that the intervals were calculated at 90% and not at 95%.

[3] = system: house fly adults (M. domestica); experiment: Method E: topical treatment of house fly adults; assay type: in vivo, Musca domestica; details: slope of log-probit regression line, adult house flies
Description: Topical Treatment of House Fly Adults (M. domestica)
A culture of an insecticide-susceptible strain, Cooper, was established. Three-day-old adult house flies (body weight about […]) were anaesthetised with carbon dioxide. Using the PAX microapplicator, a volume of 1 μL of acetone solution of the test compounds was applied to the dorsal cuticle, holding the fly in padded forceps.
Groups of flies were placed into closed vials, kept at 30±1° C., for observation.
as §1, §2

fruit fly larvae = experiment: Method D: topical treatment of fruit fly larvae; assay type: in vivo, Drosophila melanogaster; details: slope of log-probit regression line
Description: Topical Treatment of Fruit Fly Larvae
Fruit fly larvae were separated from the growing medium and second and third instars were topically treated with 0.2 μL acetone solutions of the compounds using a PAX microapplicator.
Larvae were held in padded forceps for dosing and then placed on moistened filter paper, at 30±1° C., for observation.
as §1, §2

| Compound | Slope [1] | Slope [2] | Slope [3] | Slope (fruit fly larvae) |
| --- | --- | --- | --- | --- |
| CC1=C[C@H]([C@H]2O[C@@H]3OC(C)(C)O[C@@H]3[C@H]2OCc2ccccc2)OC1=O [Compound 1, 3-O-benzyl-6,7-dideoxy-1,2-O-isopropylidene-7-methyl-α-D-gluco-oct-6-enefuranurono-8,5-lactone] | 8.862 ± 2.644 | 0.500 ± 0.124 | – | – |
| CC1=C[C@H]([C@H]2O[C@@H]3OC(C)(C)O[C@@H]3[C@@H]2OCc2ccccc2)OC1=O [Compound 2, 3-O-benzyl-6,7-dideoxy-1,2-O-isopropylidene-7-methyl-α-D-alo-oct-6-enefuranurono-8,5-lactone] | 9.217 ± 2.638 | 0.308 ± 0.066 | – | – |
| CC1(C)O[C@H]2O[C@H]([C@H]3C=CC(=O)O3)[C@@H](OCc3ccccc3)[C@H]2O1 [Compound 3, 3-O-benzyl-6,7-dideoxy-1,2-O-isopropylidene-α-D-alo-oct-6-enefuranurono-8,5-lactone] | 7.763 ± 2.182 | 0.340 ± 0.104 | – | – |
| CC1(C)O[C@H]2O[C@H]([C@H]3C=CC(=O)O3)[C@H](OCc3ccccc3)[C@H]2O1 [Compound 4, 3-O-benzyl-6,7-dideoxy-1,2-O-isopropylidene-α-D-gluco-oct-6-enefuranurono-8,5-lactone] | 9.770 ± 2.057 | 0.385 ± 0.109 | – | – |
| CC(=O)OC[C@H]1OC(=O)C(Br)=C[C@@H]1OC(C)=O [Compound 5, 4,6-di-O-acetyl-2-bromo-2,3-dideoxy-D-erythro-hex-2-enone-1,5-lactone] | 0.423 ± 0.175 | 0.296 ± 0.096 | 0.228 ± 0.146 | 1.602 ± 0.674 |
| CC1(C)OC2OC(C3CC(C)([Se]c4ccccc4)C(=O)O3)C(OCc3ccccc3)C2O1 [Compound 8, (7R)-/(7S)-3-O-Benzyl-6,7-dideoxy-1,2-O-isopropylidene-7-methyl-7-phenylselenyl-α-D-gluco-octofuranurono-8,5-lactone] | 10.359 ± 2.659 | 0.453 ± 0.115 | 0.383 ± 0.182 | – |
| CO[C@H]1O[C@H]([C@@H]2CO2)[C@@H]2O[C@H]12 [Compound 9, Methyl 2,3:5,6-Dianhydro-β-L-gulofuranoside] | 8.734 ± 1.862 | 0.326 ± 0.106 | – | – |
| O=[N+]([O-])NC1=NCCN1Cc1ccc(Cl)nc1 [Imidacloprid, imidacloprid, reference compound] | 2.435 ± 0.802 | 2.218 ± 0.911 | – | – |
| (7R)-/(7S)-3,6,7-Trideoxy-1,2-O-isopropylidene-7-methyl-7-phenylselenyl-α-D-ribo-octofuranurono-8,5-lactone [Compound 7] | 8.601 ± 2.195 | 0.395 ± 0.104 | – | 2.624 ± 0.810 |
| methyl (7R)-/(7S)-2,3-anhydro-6,7-dideoxy-7-methyl-7-phenylselenyl-α-gulo-octofuranurono-8,5-lactone [Compound 6] | 10.275 ± 2.421 | 0.696 ± 0.155 | – | – |

Source: US7622498B2, “Sugar derivatives comprising oxiranes or α, β-unsaturated δ-lactones, process for their preparation and their utilisation as pesticides” (Instituto Politecnico de Santarem/Escoal Superior Agraria, priority 2004, dated 2009)
